Source: paper PMC5129914
Positions count from the first letter of the chain named. Results are given in words; binding and its absence hold for the method and conditions named. Binding seen in cells or lysates may run through a third protein. Binding can be weak; no strength is given. For some assays here: Where a sequence is shown, tags or fusion partners need not be part of it.

Columns and labels:
[1] = target: T1, FLAG-tagged WT-LKB1 (LKB1-WT-3FLAG; full-length murine LKB1 with a carboxy-terminal triple-FLAG tag) (mouse) (UniProt Q9WTK7); assay: co-IP; PAEC transiently overexpressing FLAG-tagged WT-LKB1, K64Q or K64R; anti-FLAG or anti-SIRT1; Western blotting
T1 sequence: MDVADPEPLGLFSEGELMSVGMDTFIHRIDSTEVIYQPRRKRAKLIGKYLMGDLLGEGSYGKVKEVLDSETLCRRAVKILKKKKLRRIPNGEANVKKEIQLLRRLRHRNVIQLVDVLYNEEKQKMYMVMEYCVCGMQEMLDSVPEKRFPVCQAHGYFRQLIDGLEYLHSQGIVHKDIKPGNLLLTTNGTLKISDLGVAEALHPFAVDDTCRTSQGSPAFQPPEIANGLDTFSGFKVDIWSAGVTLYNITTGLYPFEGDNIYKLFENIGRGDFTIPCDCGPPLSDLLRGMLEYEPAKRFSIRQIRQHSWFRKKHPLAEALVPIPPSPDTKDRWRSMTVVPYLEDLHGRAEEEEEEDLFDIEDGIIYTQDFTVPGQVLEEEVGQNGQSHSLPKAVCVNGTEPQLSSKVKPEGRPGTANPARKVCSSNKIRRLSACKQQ

[2] = target: T2, K64Q (LKB1-K64Q-3FLAG; murine LKB1 with lysine 64 replaced by glutamine, carboxy-terminal triple-FLAG tag) (mouse) (UniProt Q9WTK7); assay: as above
T2 sequence: T1 sequence with K64Q

[3] = target: T3, K64R (LKB1-K64R-3FLAG; murine LKB1 with lysine 64 replaced by arginine, carboxy-terminal triple-FLAG tag) (mouse) (UniProt Q9WTK7); assay: as above
T3 sequence: T1 sequence with K64R

[4] = target: T4, LKB1 (liver kinase B1; endogenous, porcine aortic endothelial cells) (pig (endogenous in PAEC)) (UniProt F1S6Q9); assay: co-IP; PAEC transfected with control or HERC2 RNAi, or with pcDNA or hSIRT1-3FLAG; antibodies against LKB1; HERC2 and SIRT1 detected by Western blotting
T4 sequence: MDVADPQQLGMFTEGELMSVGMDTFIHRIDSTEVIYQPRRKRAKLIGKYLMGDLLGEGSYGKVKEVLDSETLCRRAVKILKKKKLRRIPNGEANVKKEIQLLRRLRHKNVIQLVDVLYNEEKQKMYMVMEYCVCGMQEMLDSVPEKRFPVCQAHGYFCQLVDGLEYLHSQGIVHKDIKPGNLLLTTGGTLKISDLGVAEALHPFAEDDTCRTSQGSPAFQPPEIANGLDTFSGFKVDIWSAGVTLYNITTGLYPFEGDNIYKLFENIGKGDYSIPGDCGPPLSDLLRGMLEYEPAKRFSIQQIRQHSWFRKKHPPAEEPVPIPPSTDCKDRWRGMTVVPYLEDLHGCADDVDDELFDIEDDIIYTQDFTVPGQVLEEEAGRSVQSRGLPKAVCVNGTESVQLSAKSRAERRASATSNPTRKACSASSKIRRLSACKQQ

[5] = target: T4, LKB1 (liver kinase B1; endogenous, porcine aortic endothelial cells) (pig (endogenous in PAEC)); assay: co-IP; total cell lysates or subcellular (cytosol and nuclear) fractions of PAEC treated with MG132 (10 μM, six hours); antibodies against LKB1 or SIRT1; Western blotting

Measured: binding

SIRT1 (endogenous, porcine aortic endothelial cells) (pig (endogenous in PAEC))
binds: all assays above
